Assay results reported in PMC13053990.

Key:
[1] = biological target: EGFP-miPEP8 (Enhanced Green Fluorescent Protein-miPEP8) fused protein (Drosophila melanogaster); assay: co-IP; S2 cells co-transfected with EGFP, EGFP-miPEP8 or EGFP-miPEP8 SLiMmt and a HA-tagged candidate; GFP-Trap agarose beads; Western blot with anti-HA and anti-GFP
[2] = biological target: EGFP-miPEP8 SLiMmt (mutated SLiM MOD_Plk1/MOD_Plk4) (Drosophila melanogaster); assay: as above

| binding [1] | binding [2] | Binder |
| --- | --- | --- |
| binds | binds | ref(2)P-HA (protein, UniProt P14199 1-599) MPEKLLKITYQGAGPQKKINAYLRMPSQNYTILRREIELYLFQERQLPKCDVRTFWIDADKDEIEIVNQNDYEIFLAKCESNMHVQVAPLAPVEEPKATKQEGSSANAEAPSVDDPSNFTIHDAVECDGCGLAPLIGFRYKCVQCSNYDLCQKCELAHKHPEHLMLRMPTNNGPGMVDAWFTGPGLGRRSGRRSRGHCPFQETNQADPAGEPARDSRRERRQARRHAGVLTQFVEMMTNLPLNTTTATAPAEPQKPKAAEQTESPPQAEPTVTAEKAAESEAKPTEPKKVNTDQSVPRTEDPVTTPRSTQPTTPVINLDNISQIVPPEYMSAGIEILNNFSEMFSKIIDTTEGGDSGIFAPSTTPSAENKKPEEQGQSSGQSGASSANQSAVPSAAPSANQSNVPSANQSATPSISGSIPDAQLETEPLNPKPSETTTETEQERRRSDSLDPEWQLIDNAYSANNSNLINLDTTNPTAAPQEPVRDFGQLGELLRQHMNEEARVEQASANTQTAQVDTVSTSTSTTSVTTNSVGTSPAAPDDKRTVPVYHTDESINKSIHAMMAMGFSNEGAWLTQLLESVQGNISAALDVMNVSQNRN |
| binds |  | PI3K92 E fused with a HA tag (protein, UniProt P91634 1-1088) MNMMDNRALAYVAHQPKYETPPEEAEPPCMRFSVNLWKNEMLNWVDLICLLPNGFLLELRVNPANTIQVIKVEMVNQAKQMPLGYVIKEACEYQVYGISTFNIEPYTDETKRLSEVQPYFGILSLGERTDTTSFSSDYELTKMVNGMIGTTFDHNRTHGSPEIDDFRLYMTQTCDNIELERSAYTWQQRLLYEHPLRLANSTKMPELIRERHPTRTFLIVVKNENDQSTFTLSVNEQDTPFSLTESTLQKMNRSQMKMNDRTSDYILKVSGRDEYLLGDYPLIQFLYIQEMLSDSAVPNVVLQSVYRLESYINHHNEQAMVTKRPLPKKRTVHLHKSISSLWDMGNYFQLTLHSISNVNFDKTRALKVGVHVCLYHGDKKLCAQRSTDSPNGNFDTFLFNDLVMDFDIQMRNLPRMTRLCIVIFEVTKMSRSKKSSNNKDIALKDVPYNKNPLAWVNTTIFDHKDILRTGRHTLYTWTYADDIQSVEVFHPLGTIEPNPRKEECALVDLTFLSSGTGTVRYPSEEVVLQYAADREQVNRLQRQLAGPEKPIKELKELMANYTGLDKIYEMVDQDRNAIWERRNDILRELPEELSILLHCVYWKERDDVADMWYLLKQWPLISIERSLELLDYAYPDPAVRRFAIRCLHFLKDEDLLLYLLQLVQAIKHESYLESDLVVFLLERALRNQRIGHYFFWHLRSEMQTPSMQTRFGLLLEVYLKGCKHHVAPLRKQLHVLEKLKQGSLIAKKGSKEKVKTMLQDFLRDQRNSAVFQNIQNPLNPSFRCSGVTPDRCKVMDSKMRPLWVVFENADVNASDVHIIFKNGDDLRQDMLTLQMLRVMDQLWKRDGMDFRMNIYNCISMEKSLGMIEVVRHAETIANIQKEKGMFSATSPFKKGSLLSWLKEHNKPADKLNKAINEFTLSCAGYCVATYVLGVADRHSDNIMVKRNGQLFHIDFGHILGHFKEKLGVRRERVPFVLTHDFVYVINKGFNDRESKEFCHFQELCERAFLVLRKHGCLILSLFSMMISTGLPELSSEKDLDYLRETLVLDYTEEKAREHFRAKFSEALANSWKTSLNWASHNFSKNNKQ |

No constants are given. Whether binding was seen depends on the method and setting. In cells and extracts the contact can be indirect. A result given as binding can be weak or reduced; the word gives no strength. Sequences can lack the tags named with a protein.
